{"source": "the supplement of paper PMC6411743", "experiment_in_all_cases": "NP40-soluble protein abundance relative to vehicle (solubility fold change) (ratio); higher = more soluble protein in presence of ATP", "key": {"CDS2": {"target": "T1, CDS2 (UniProt O95674)", "T1 sequence (whole entry)": "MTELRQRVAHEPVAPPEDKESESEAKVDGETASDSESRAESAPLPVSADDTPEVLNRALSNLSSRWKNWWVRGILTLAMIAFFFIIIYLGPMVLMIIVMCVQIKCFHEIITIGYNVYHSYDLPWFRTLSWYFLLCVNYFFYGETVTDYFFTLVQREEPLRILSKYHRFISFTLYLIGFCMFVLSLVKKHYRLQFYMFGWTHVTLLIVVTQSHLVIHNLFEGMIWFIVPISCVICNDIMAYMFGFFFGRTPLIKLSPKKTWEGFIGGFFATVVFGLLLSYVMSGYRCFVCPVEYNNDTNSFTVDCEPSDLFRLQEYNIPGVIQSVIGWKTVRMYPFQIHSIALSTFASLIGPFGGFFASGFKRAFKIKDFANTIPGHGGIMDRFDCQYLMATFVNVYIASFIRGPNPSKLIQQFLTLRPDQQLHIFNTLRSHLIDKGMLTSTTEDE", "procedure,_shortened": "(§1)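 Jurkat crude lysate prepared with a Dounce homogeniser was treated at eight concentrations spanning 0.1 to 10 mM, 10 min at room temperature then 3 min at 37 °C. Solubilisation with 0.8% NP40 and benzonase and ultracentrifugation preceded TMT labelling of the supernatant for LC-MS/MS. Fold change against the detergent-processed vehicle was determined per replicate from vsn-normalised intensities, across three independent experiments.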"}, "DOK2": {"target": "T2, DOK2 (UniProt O60496)", "T2 sequence (whole entry)": "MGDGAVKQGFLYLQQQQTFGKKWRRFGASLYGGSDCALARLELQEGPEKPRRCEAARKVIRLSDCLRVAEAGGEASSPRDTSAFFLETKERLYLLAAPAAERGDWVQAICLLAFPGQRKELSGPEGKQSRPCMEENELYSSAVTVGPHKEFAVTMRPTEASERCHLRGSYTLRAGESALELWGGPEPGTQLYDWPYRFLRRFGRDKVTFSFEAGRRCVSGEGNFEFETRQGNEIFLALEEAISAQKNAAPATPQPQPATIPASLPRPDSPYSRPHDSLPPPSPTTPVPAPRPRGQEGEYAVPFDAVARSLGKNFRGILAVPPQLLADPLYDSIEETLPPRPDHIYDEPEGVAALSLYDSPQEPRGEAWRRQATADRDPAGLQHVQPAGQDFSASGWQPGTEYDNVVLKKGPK", "procedure,_shortened": "as §1"}, "EDF1": {"target": "T3, EDF1 (UniProt O60869)", "T3 sequence (whole entry)": "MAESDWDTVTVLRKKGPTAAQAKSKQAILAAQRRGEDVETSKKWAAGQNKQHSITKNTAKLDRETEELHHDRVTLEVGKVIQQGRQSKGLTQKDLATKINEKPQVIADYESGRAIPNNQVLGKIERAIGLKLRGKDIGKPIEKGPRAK", "procedure,_shortened": "as §1"}, "MFN2": {"target": "T4, MFN2 (UniProt O95140)", "T4 sequence (whole entry)": "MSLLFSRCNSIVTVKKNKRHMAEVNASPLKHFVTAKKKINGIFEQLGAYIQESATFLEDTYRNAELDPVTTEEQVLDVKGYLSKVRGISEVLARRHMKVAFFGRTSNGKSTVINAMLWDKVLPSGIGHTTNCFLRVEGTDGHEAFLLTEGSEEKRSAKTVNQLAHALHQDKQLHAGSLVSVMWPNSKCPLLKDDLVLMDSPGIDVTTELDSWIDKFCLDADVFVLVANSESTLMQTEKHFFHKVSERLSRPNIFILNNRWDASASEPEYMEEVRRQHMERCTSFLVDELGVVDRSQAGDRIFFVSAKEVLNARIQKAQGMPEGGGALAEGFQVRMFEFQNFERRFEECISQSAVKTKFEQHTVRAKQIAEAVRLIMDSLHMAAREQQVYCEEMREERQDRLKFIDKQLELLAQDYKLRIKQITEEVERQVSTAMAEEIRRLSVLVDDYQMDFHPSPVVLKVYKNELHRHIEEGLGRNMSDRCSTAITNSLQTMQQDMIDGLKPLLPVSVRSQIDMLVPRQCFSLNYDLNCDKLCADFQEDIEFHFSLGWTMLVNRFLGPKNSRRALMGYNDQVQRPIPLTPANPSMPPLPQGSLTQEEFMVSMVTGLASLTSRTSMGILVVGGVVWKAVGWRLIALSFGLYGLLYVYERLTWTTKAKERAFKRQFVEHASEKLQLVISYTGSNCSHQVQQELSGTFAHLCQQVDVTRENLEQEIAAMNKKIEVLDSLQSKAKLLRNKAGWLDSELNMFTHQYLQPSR", "procedure,_shortened": "as §1"}, "PGLS": {"target": "T5, PGLS (UniProt O95336)", "T5 sequence (whole entry)": "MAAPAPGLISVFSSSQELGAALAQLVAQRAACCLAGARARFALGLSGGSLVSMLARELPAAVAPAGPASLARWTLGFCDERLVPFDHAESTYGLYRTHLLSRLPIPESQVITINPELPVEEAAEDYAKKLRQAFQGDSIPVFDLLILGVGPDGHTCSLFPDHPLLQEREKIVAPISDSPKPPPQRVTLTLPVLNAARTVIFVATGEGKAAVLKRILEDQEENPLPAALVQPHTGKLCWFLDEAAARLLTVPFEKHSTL", "procedure,_shortened": "as §1"}}, "note": "± gives the standard deviation of the averaged measurements. This is a selection; strong and weak results do not stand in their true shares.", "data": [{"smiles": "Nc1ncnc2c1ncn2[C@@H]1O[C@H](COP(=O)(O)OP(=O)(O)OP(=O)(O)O)[C@@H](O)[C@H]1O", "note": "[adenosine triphosphate]", "values": [{"measurement": "NP40-soluble protein abundance", "setting": "CDS2; concentration: 1mM", "result": "0.878 ± 0.029"}, {"measurement": "NP40-soluble protein abundance", "setting": "CDS2; concentration: 2mM", "result": "0.891 ± 0.063"}, {"measurement": "NP40-soluble protein abundance", "setting": "CDS2; concentration: 4mM", "result": "0.881 ± 0.033"}, {"measurement": "NP40-soluble protein abundance", "setting": "CDS2; concentration: 6mM", "result": "0.858 ± 0.043"}, {"measurement": "NP40-soluble protein abundance", "setting": "CDS2; concentration: 8mM", "result": "0.863 ± 0.041"}, {"measurement": "NP40-soluble protein abundance", "setting": "CDS2; concentration: 10mM", "result": "0.886 ± 0.05"}, {"measurement": "NP40-soluble protein abundance", "setting": "DOK2; concentration: 1mM", "result": "0.983 ± 0.013"}, {"measurement": "NP40-soluble protein abundance", "setting": "DOK2; concentration: 2mM", "result": "0.987 ± 0.038"}, {"measurement": "NP40-soluble protein abundance", "setting": "DOK2; concentration: 4mM", "result": "0.9766 ± 0.0063"}, {"measurement": "NP40-soluble protein abundance", "setting": "DOK2; concentration: 6mM", "result": "0.938 ± 0.045"}, {"measurement": "NP40-soluble protein abundance", "setting": "DOK2; concentration: 8mM", "result": "0.967 ± 0.011"}, {"measurement": "NP40-soluble protein abundance", "setting": "DOK2; concentration: 10mM", "result": "0.964 ± 0.027"}, {"measurement": "NP40-soluble protein abundance", "setting": "EDF1; concentration: 1mM", "result": "0.996 ± 0.11"}, {"measurement": "NP40-soluble protein abundance", "setting": "EDF1; concentration: 2mM", "result": "1.01 ± 0.064"}, {"measurement": "NP40-soluble protein abundance", "setting": "EDF1; concentration: 4mM", "result": "1 ± 0.043"}, {"measurement": "NP40-soluble protein abundance", "setting": "EDF1; concentration: 6mM", "result": "1.11 ± 0.11"}, {"measurement": "NP40-soluble protein abundance", "setting": "EDF1; concentration: 8mM", "result": "1.02 ± 0.022"}, {"measurement": "NP40-soluble protein abundance", "setting": "EDF1; concentration: 10mM", "result": "0.99 ± 0.08"}, {"measurement": "NP40-soluble protein abundance", "setting": "MFN2; concentration: 1mM", "result": "1.06 ± 0.021"}, {"measurement": "NP40-soluble protein abundance", "setting": "MFN2; concentration: 2mM", "result": "1.05 ± 0.033"}, {"measurement": "NP40-soluble protein abundance", "setting": "MFN2; concentration: 4mM", "result": "1.05 ± 0.056"}, {"measurement": "NP40-soluble protein abundance", "setting": "MFN2; concentration: 6mM", "result": "0.994 ± 0.083"}, {"measurement": "NP40-soluble protein abundance", "setting": "MFN2; concentration: 8mM", "result": "1.05 ± 0.049"}, {"measurement": "NP40-soluble protein abundance", "setting": "MFN2; concentration: 10mM", "result": "1.02 ± 0.013"}, {"measurement": "NP40-soluble protein abundance", "setting": "PGLS; concentration: 1mM", "result": "1 ± 0.022"}, {"measurement": "NP40-soluble protein abundance", "setting": "PGLS; concentration: 2mM", "result": "0.998 ± 0.011"}, {"measurement": "NP40-soluble protein abundance", "setting": "PGLS; concentration: 4mM", "result": "0.9917 ± 0.0014"}]}]}
